Results reported in patent publication US20100129870.

Chains of the proteins cited; added tags and fusions are not shown. Residues count along the entry.
UniProt P02769, 25-607: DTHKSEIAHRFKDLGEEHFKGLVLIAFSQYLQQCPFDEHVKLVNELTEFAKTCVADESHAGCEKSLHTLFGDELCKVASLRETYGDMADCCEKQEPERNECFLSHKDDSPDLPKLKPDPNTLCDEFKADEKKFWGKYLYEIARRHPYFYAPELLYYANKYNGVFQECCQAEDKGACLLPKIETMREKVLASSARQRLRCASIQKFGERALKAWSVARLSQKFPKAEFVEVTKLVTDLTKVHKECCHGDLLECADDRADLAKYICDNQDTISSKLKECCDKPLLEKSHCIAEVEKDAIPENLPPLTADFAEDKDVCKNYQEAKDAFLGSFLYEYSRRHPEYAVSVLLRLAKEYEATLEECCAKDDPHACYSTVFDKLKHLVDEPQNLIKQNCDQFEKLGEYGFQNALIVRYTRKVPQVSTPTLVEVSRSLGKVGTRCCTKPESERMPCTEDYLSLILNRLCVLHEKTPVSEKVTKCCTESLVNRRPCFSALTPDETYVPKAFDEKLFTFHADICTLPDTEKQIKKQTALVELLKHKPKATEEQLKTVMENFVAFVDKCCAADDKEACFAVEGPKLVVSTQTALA

Tests used:
[1] = biological target: T1, myeloperoxidase (MPO) (Homo sapiens) (UniProt P05164); experiment: filter binding; conditions: label: 32P (alpha-32P-ATP), variant of RNA pool 2; for Kd: room temperature
T1 sequence (limits assumed): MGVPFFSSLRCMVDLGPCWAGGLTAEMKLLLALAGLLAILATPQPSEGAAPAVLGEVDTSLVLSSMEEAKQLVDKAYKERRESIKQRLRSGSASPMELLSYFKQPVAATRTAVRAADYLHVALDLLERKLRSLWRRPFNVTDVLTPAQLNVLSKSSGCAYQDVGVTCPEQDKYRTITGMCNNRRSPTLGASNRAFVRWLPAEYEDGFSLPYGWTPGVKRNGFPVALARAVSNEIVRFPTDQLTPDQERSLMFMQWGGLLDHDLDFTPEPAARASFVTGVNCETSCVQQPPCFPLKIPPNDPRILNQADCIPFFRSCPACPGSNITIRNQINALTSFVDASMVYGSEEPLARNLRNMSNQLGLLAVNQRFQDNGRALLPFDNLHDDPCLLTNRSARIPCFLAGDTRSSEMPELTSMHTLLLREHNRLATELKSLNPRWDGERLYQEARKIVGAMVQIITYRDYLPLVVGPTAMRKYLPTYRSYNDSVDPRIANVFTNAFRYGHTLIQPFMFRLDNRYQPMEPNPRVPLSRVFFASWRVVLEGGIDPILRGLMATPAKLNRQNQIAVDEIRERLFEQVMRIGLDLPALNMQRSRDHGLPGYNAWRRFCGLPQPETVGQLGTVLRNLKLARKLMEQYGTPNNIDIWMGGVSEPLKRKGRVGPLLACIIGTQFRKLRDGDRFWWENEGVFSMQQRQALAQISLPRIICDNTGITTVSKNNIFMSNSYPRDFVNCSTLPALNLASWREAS

[2] = biological target: bovine serum albumin (BSA) (Bos taurus) (UniProt P02769); experiment: filter binding; conditions: 100 nM BSA; specificity control; not significantly different from pool (1.86); label: 32P (alpha-32P-ATP); variant of RNA pool 2; counted as no binding

Row | Sequence | Kd ([1]; Bmax 77.2%) | binding signal [2] | binding signal ([1]; 100 nM MPO, 12.48 at 50 nM, 0.24 without protein) | Kd ([1]; Bmax 52%)
1 | GGUAGAUACGAUGGAACACGAAUAUUUCAAAGUGAUACCCCAGGGCAUGACGCGCAGCCA [MPO aptamer sequence number 17] | 138 nM |  |  | 
2 | GGUAGAUACGAUGGAACACGAAGAUUUCAAAGUGAUACCCCAGGGCAUGACGCGCAGCCA [MPO aptamer sequence number 16] |  | 2.46 % bound | 11.4 % bound | 195 nM

Construct, isoform or probe ends are uncertain for at least one entry. For some of these results: Where a protein sequence is shown, tags need not be part of it.
